According to PubChem BioAssay AID485314 (National Center for Advancing Translational Sciences (NCATS), 2010):
In all, about 340,000 compounds went through this assay and about 4,500 (1.3%) were called active. Inconclusive results, whose numbers are uncertain, are shown with a selection of clear calls. Calls come from the whole dose curve; as a rule, active = well fitted inhibition curve with a large enough effect; inconclusive = small, poorly fitted or top-dose-only effect, or another doubt; inactive = no such curve, though single readings can be large or run the other way. Potencies beside an inconclusive call are fits to weak or partial responses and may not hold up.

Target: DNA polymerase beta (Homo sapiens) (UniProt P06746)
Experiment: qHTS Assay for Inhibitors of DNA Polymerase Beta
Conditions: Pol beta primer extension/strand displacement, fluorescence kinetic; activity change, negative = inhibition: at 114 µM (top of the series)
In short: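 Reaction started by 50 nM substrate onto compound-treated Pol beta (10 nM, 15 min preincubation, room temperature); plates read at 0 min and 10 min. Normalized concentration-effect data fitted by four-parameter Hill equation.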
% is set by controls: 0 for no effect and ±100 for the full control effect; potency is the fitted concentration of half-maximal effect.

Potency, active:
CC(=C\C(=O)O)/C(=C/c1ccc(C)o1)C(=O)O 20 µM
Cc1n[nH]c(=S)n(NC(=O)/C=C/C(=O)Nn2c(=S)[nH]nc(C)c2=O)c1=O 20 µM
O=C(N/N=C/c1ccc(OC(=O)c2ccccc2)cc1)c1cccnc1 50.1 µM
CCCCNS(=O)(=O)c1cc(-c2nn(C)c(=O)c3ccccc23)ccc1C 35.5 µM
COc1ccccc1NS(=O)(=O)c1cccc(-n2c(O)c(C=Nc3ccccc3C(=O)O)c3ccccc3c2=O)c1 56.2 µM

Potency, inconclusive:
CCCOc1ccc(C2=NC(c3ccc(F)cc3)=Nc3ccc(OC)cc3N2)cc1 22.4 µM [inhibitor, partial curve, poor fit]
COc1ccccc1Nc1ncc(C(=O)Nc2ccc(OC)c(OC)c2)c2ccccc12 50.1 µM [inhibitor, single point]
NC1=CC(=O)c2cccc3cccc1c23 56.2 µM [inhibitor, partial curve]
NS(=O)(=O)c1ccc2c(c1)C(=NO)c1cc(S(N)(=O)=O)ccc1-2 28.2 µM [inhibitor, partial curve, poor fit]
Cc1cc(=O)[nH]c(SCc2cccc3ccccc23)n1 22.4 µM [inhibitor, partial curve]
CC(=O)NNC(=O)c1nc(-c2ccccc2)c(C)o1 89.1 µM [inhibitor, single point]
CC(C)(C)NC(=O)CSc1nc2ccccc2n1-c1ccccc1 0.501 µM [inhibitor, partial curve, poor fit]
Cc1ccnc(N=Cc2c(O)ccc3oc4c(c23)CCCC4)c1 56.2 µM [inhibitor, partial curve]
Cc1ccc(CNc2ccc(O)cc2)cc1 50.1 µM [inhibitor, partial curve, poor fit]
O=C1COc2ccc(C(=O)COC(=O)c3ccc4ccccc4n3)cc2N1 31.6 µM [inhibitor, single point]
O=C(CSc1c(Cl)cccc1Cl)NC1CCCc2ccccc21 (stereo not drawn) 28.2 µM [inhibitor, full curve]
Cc1nc2c(sc3nc(N4CCOCC4)c4c(c32)CC(C)(C)OC4)c(-c2ccc(Cl)cc2)c1C(=O)O 0.562 µM [inhibitor, full curve, poor fit]
COc1ccc(Cl)cc1NC(=O)CCN1C(=O)c2ccccc2Sc2ncccc21 0.398 µM [inhibitor, full curve, poor fit]
COC(=O)c1ccccc1NS(=O)(=O)c1c(C)noc1C 0.398 µM [inhibitor, full curve, poor fit]
COc1ccc(C2(c3ccc(OC)cc3)NC(=O)N(CC(=O)Nc3ccccc3)C2=O)cc1 4.47 µM [inhibitor, full curve, poor fit]
COc1ccc(Cl)cc1NC(=O)c1ncn(-c2ccccc2)n1 20 µM [inhibitor, partial curve]
Cc1c(NC(=O)CS(=O)(=O)c2ccccc2)c(=O)n(-c2ccccc2)n1C 0.251 µM [inhibitor, full curve, poor fit]
Cc1cccc(-c2nnn3c2nc(NCc2ccccc2)c2ccccc23)c1 1.78 µM [inhibitor, full curve, poor fit]
O=C(c1cccc2cccc(O)c12)N1CCCCC1 89.1 µM [inhibitor, single point]
COc1ccc(CC(O)COS(N)(=O)=O)cc1 (stereo not drawn) 89.1 µM [inhibitor, single point]
COc1cccc(Cn2c(C)c(CNCc3ccccc3Cl)c(C(=O)O)c2C)c1 89.1 µM [inhibitor, single point]
COc1ccc(C2(CNC(=O)C(=O)Nc3ccc(C)cc3)CCOCC2)cc1 100 µM [inhibitor, single point]
OCCN1CCN(C2Cc3cc(Cl)ccc3Sc3ccc(Cl)cc32)CC1 (stereo not drawn) (tested in a mixture with another compound) 79.4 µM [inhibitor, single point]
Cc1sc2nc3c(SC(C)C(=O)O)cc(C(=O)c4ccccc4O)cn3c(=O)c2c1C (stereo not drawn) 89.1 µM [inhibitor, single point]
COc1ccc(OC)c(-c2nc(C)sc2CC(=O)O)c1 89.1 µM [inhibitor, single point]
Cn1cc(Br)c(C(=O)N/N=C/c2cc3c(cc2Cl)OCO3)n1 79.4 µM [inhibitor, partial curve, poor fit]
CC(C)(C)N1C(=O)c2ccc(C(=O)Nc3ccc(O)cc3)cc2C1=O 89.1 µM [inhibitor, single point]
COc1ccc(Br)cc1C(=O)N/N=C/c1ccc([N+](=O)[O-])cc1 5.62 µM [inhibitor, full curve]
C=CCn1c(SCC(=O)c2cccs2)nnc1-c1cccc(OC)c1 4.47 µM [inhibitor, single point]
CN(C)C(CNC(=O)c1cccc(OC(F)F)c1)c1ccco1 (stereo not drawn) 44.7 µM [inhibitor, partial curve]
CC(=O)N1CCN(S(=O)(=O)c2cccc(C(=O)Nc3ccc4c(c3)OCO4)c2)CC1 44.7 µM [inhibitor, partial curve]
CCCc1nnc(NC(=O)CCC(=O)NCc2ccccc2OC)s1 3.98 µM [inhibitor, single point]
Oc1ccc(Cl)cc1CNc1ccccn1 7.08 µM [inhibitor, partial curve]
CCCCN(CC)C(=O)Cn1cnc2sc(C)c(S(=O)(=O)N3CCC(C)CC3)c2c1=O 89.1 µM [inhibitor, single point]
COc1ccc(-c2cc3ccc(OCc4nn[nH]n4)cc3oc2=O)cc1 39.8 µM [inhibitor, partial curve]
CCc1ccc(NS(=O)(=O)c2[nH]ncc2C(=O)OC)cc1 89.1 µM [inhibitor, single point]
COc1ccc(-c2nn(-c3ccccc3)cc2C2NC(=O)NC(C)=C2C(=O)OC(C)C)cc1OC (stereo not drawn) 0.891 µM [inhibitor, single point]
CCCCC(CC)CNC(=O)CC1Nc2c3ccccc3nc(=S)n2C1=O (stereo not drawn) 70.8 µM [inhibitor, single point]
COC(=O)c1c(N)sc(C(=O)N2CCOCC2)c1C 0.708 µM [inhibitor, full curve]
O=C(Cc1ccsc1)Nc1ccccc1F 3.98 µM [inhibitor, single point]
O=C(Nc1ccc2nc(-c3ccccc3)[nH]c2c1)c1ccco1 10 µM [inhibitor, full curve, poor fit]
Cc1c(S(=O)(=O)c2ccccn2)c(N)n(Cc2ccccc2)c1C 0.316 µM [inhibitor, full curve, poor fit]
N=C1/C(=C/c2cccs2)C(=O)N=C2SN=C(SCc3ccccc3)N12 89.1 µM [inhibitor, single point]
COc1ccc(NC(=O)Cn2cc(S(=O)(=O)Cc3ccccc3)c3ccccc32)c(OC)c1 20 µM [inhibitor, partial curve]
O=C(COc1ccccc1Cl)Nc1ccc(CN2CCCCC2)cc1 79.4 µM [inhibitor, single point]
Cc1c(CCOC(=O)C2C3CC4CC(C3)CC2C4)sc[n+]1CC(=O)c1ccc(Br)cc1 (stereo not drawn) 3.98 µM [inhibitor, single point]
CCOC(=O)COc1cccc2c(=O)n(CC(=O)N3CCc4ccccc43)ccc12 39.8 µM [inhibitor, single point]

A draw from above in order of length of the SMILES, rising.
Potency, inconclusive:
COC(=O)c1c(N)sc(C(=O)N2CCOCC2)c1C 0.708 µM [inhibitor, full curve]
CN(C)C(CNC(=O)c1cccc(OC(F)F)c1)c1ccco1 (stereo not drawn) 44.7 µM [inhibitor, partial curve]
O=C1COc2ccc(C(=O)COC(=O)c3ccc4ccccc4n3)cc2N1 31.6 µM [inhibitor, single point]
CCCCN(CC)C(=O)Cn1cnc2sc(C)c(S(=O)(=O)N3CCC(C)CC3)c2c1=O 89.1 µM [inhibitor, single point]

Next part.

Activity change, negative = inhibition, inconclusive:
Cc1c(CC(=O)O)c(=O)oc2c(C)c(OCc3ccccc3Br)ccc12 -74.8% [inhibitor]

Activity change, negative = inhibition, inactive:
CCOc1ccc(CNC(=O)CCCc2cn(C)c3ccccc23)cc1 5.39%
O=c1cc[nH]c2c1ccc1c(=O)cc[nH]c12 -23.4%
O=C(c1nc2ccccn2c1CNCCCn1cccn1)N1CCCC1 10.4%
Cc1ccc(C)n1-c1cccc(C(=O)Nc2ccccc2)c1 2.38%
Cc1ccccc1OCc1ccc(-c2nc(C#N)c(N3CCN(c4ccccc4)CC3)o2)o1 3.5%
COc1ccc2cc3[n+](cc2c1OC)CCc1cc2c(cc1-3)OCO2 -15.7%
O=C(/C=C/c1ccco1)c1ccccc1O 1.85%
c1ccc(-c2nn3c(Cn4nnc5ccccc54)nnc3s2)cc1 -3.47%
Cc1nn(C)c2c1c(-c1ccccc1)cc(=O)n2CC(=O)NC(C)C -1.32%
Cc1ccc(/C=N/NC(=O)CSCc2ccc(Cl)cc2)cc1 2.43%
CCOC(=O)c1c(S(=O)(=O)N2CCCC(C(=O)NCc3ccccc3OC)C2)c(C)n(C)c1C (stereo not drawn) 19.9%
Cc1ccc(NC(=O)c2ccc(=O)n(Cc3ccccc3C)c2)c(C)c1 17.7%
Cc1ccc(NC(=O)C2CCCN2C(=O)OCc2ccccc2)cc1F (stereo not drawn) 29.6%
Cc1cccc(C(=O)Oc2c(Sc3ccccc3)c(C)nn2C(C)(C)C)c1 -2.05%
CC(NC(=O)c1ccc2c(c1)sc1nc(-c3ccccc3)cn12)C12CC3CC(CC(C3)C1)C2 (stereo not drawn) -18.7%
